From PubChem BioAssay AID256 (DTP/NCI, 2004)
The list is a part of this screen's results and no random one: it gathers tests that were run many times, whatever their T/C, doses with no T/C, and many T/C values between a quarter and a half above the control. Other doses and runs of a compound stand elsewhere. T/C is the treated group as % of the vehicle group. Some doses have a count of surviving animals in place of a T/C: the source holds a T/C of zero for them, seemingly a mark for toxic or unscored doses. Some doses without a T/C left all or most animals alive at the check, yet need not have been tolerated: survival well below the control is almost never listed, so the zero probably covers shortened survival too. Counts of survivors are from the toxicity check (mostly the fifth day) where no day follows; animals may have died later. Schedules are NCI's codes, taken here to give the interval after Q, in days (D) or hours (H), and the number of doses after X. Some entries were tested several times; the values are given in rising order. Some molecules as drawn cover several salts, stereoisomers or complexes of the source; a dose is that of the sample tested. Signs of the kind (2×) stand for listed records that agree. For survival time, this PubChem deposit counts one and a half times the control or more as active, and values a quarter to a half above the control carry no call in these data; other NCI protocols may use other cut-offs. Some T/C values carry the count of animals alive at the toxicity check (mostly the fifth day); without a count, all were alive then.

Test system: CD2F1 mice, L1210 leukemia ip, survival T/C
Assay: NCI In Vivo Anticancer Drug Screen. Data for tumor model L1210 Leukemia (intraperitoneal) in CD2F1 (CDF1) mice
Conditions: T/C endpoint: mean survival time, higher T/C = longer survival
In short: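 Mice carrying a transplanted tumor received test compound or vehicle alone. The value is the measurement in the treated group divided by that in the vehicle-treated control group.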

[1] = dose: 3.13 mg/kg/injection, schedule: Q01DX009 (ip), vehicle: water
[2] = dose: 6.25 mg/kg/injection, schedule: Q01DX009 (ip), vehicle: water
[3] = dose: 200.0 mg/kg/injection, schedule: Q01DX009 (ip), vehicle: water

**Q.** Which results are given for O=C1N[C@@H]([C@H]2CC[C@H](Cl)CN2)C(=O)N[C@H]1[C@H]1CC[C@H](Cl)CN1?
**A.** T/C (dose: 0.25 mg/kg/injection, schedule: Q03HX024 (ip), vehicle: saline): 143 % of control; T/C (dose: 0.39 mg/kg/injection, schedule: Q01DX009 (ip), vehicle: water): 113, 116, 117, 120, 125, 136 % of control; T/C (dose: 0.5 mg/kg/injection, schedule: Q01DX009 (ip), vehicle: saline): 135 % of control; T/C (dose: 0.5 mg/kg/injection, schedule: Q01DX009 (sc), vehicle: saline): 130 % of control; T/C (dose: 0.5 mg/kg/injection, schedule: Q03HX008 (ip), vehicle: saline): 145 % of control; T/C (dose: 0.78 mg/kg/injection, schedule: Q01DX009 (ip), vehicle: water): 130, 134, 139, 145, 148, 150 % of control [2 of 3 alive]; T/C (dose: 1.0 mg/kg/injection, schedule: Q01DX009 (iv), vehicle: saline): 126 % of control; T/C (dose: 1.0 mg/kg/injection, schedule: Q01DX009 (sc), vehicle: saline): 147 % of control; T/C (dose: 1.0 mg/kg/injection, schedule: Q04DX003 (ip), vehicle: saline): 135 % of control; T/C (dose: 1.56 mg/kg/injection, schedule: Q01DX009 (ip), vehicle: water): 140, 159, 184, 186, 197, 201 % of control; T/C (dose: 2.0 mg/kg/injection, schedule: Q01DX001 (ip), vehicle: saline): 130 % of control; T/C (dose: 2.0 mg/kg/injection, schedule: Q01DX001 (oral), vehicle: saline): 132 % of control; T/C (dose: 2.0 mg/kg/injection, schedule: Q01DX009 (sc), vehicle: saline): 145 % of control; T/C (dose: 2.0 mg/kg/injection, schedule: Q04DX003 (ip), vehicle: saline): 130 % of control; T/C (dose: 2.0 mg/kg/injection, schedule: Q08DX002 (ip), vehicle: saline): 143 % of control; T/C (dose: 2.5 mg/kg/injection, schedule: Q01DX001 (ip), vehicle: water): 145 % of control; T/C [1]: 106, 225, 232, 250, 282 % of control; survivor count [1]: 3 of 3; T/C (dose: 4.0 mg/kg/injection, schedule: Q01DX001 (ip), vehicle: saline): 148 % of control; T/C (dose: 4.0 mg/kg/injection, schedule: Q01DX001 (iv), vehicle: saline): 127 % of control; T/C (dose: 4.0 mg/kg/injection, schedule: Q01DX001 (oral), vehicle: saline): 135 % of control [9 of 10 alive]; T/C (dose: 4.0 mg/kg/injection, schedule: Q01DX001 (sc), vehicle: saline): 136 % of control; survivor count (dose: 4.0 mg/kg/injection, schedule: Q01DX009 (sc), vehicle: saline): 10 of 10; survivor count (dose: 4.0 mg/kg/injection, schedule: Q03HX008 (ip), vehicle: saline): 6 of 10; survivor count (dose: 4.0 mg/kg/injection, schedule: Q03HX016 (ip), vehicle: saline): 7 of 10; survivor count (dose: 4.0 mg/kg/injection, schedule: Q03HX024 (ip), vehicle: saline): 4 of 10; T/C (dose: 4.0 mg/kg/injection, schedule: Q08DX002 (oral), vehicle: saline): 142 % of control; T/C (dose: 4.4 mg/kg/injection, schedule: Q01DX001 (ip), vehicle: saline): 160, 163, 167, 217, 234 % of control; T/C [2]: 102, 103, 108, 127 % of control; survivor count [2]: 3 of 3 and 6 of 6; T/C (dose: 6.6 mg/kg/injection, schedule: Q01DX001 (ip), vehicle: saline): 177, 196, 227, 288, 459 % of control; survivor count (dose: 8.0 mg/kg/injection, schedule: Q01DX009 (ip), vehicle: saline): 10 of 10; survivor count (dose: 8.0 mg/kg/injection, schedule: Q01DX009 (oral), vehicle: saline): 10 of 10; survivor count (dose: 8.0 mg/kg/injection, schedule: Q01DX009 (sc), vehicle: saline): 8 of 10; survivor count (dose: 8.0 mg/kg/injection, schedule: Q03HX008 (ip), vehicle: saline): 10 of 10; T/C (dose: 8.0 mg/kg/injection, schedule: Q04DX003 (ip), vehicle: saline): 129 % of control [9 of 10 alive]; T/C (dose: 10.0 mg/kg/injection, schedule: Q01DX001 (ip), vehicle: saline, evaluated on day 45): 309 % of control; T/C (dose: 10.0 mg/kg/injection, schedule: Q01DX001 (ip), vehicle: saline, evaluated on day 60): 220, 290, 350, 353, 394, 655 % of control [9 of 10 alive]; survivor count (dose: 16.0 mg/kg/injection, schedule: Q01DX001 (ip), vehicle: saline): 5 of 10; survivor count (dose: 16.0 mg/kg/injection, schedule: Q01DX001 (oral), vehicle: saline): 4 of 10; survivor count (dose: 20.0 mg/kg/injection, schedule: Q01DX001 (ip), vehicle: water): 10 of 10; survivor count (dose: 32.0 mg/kg/injection, schedule: Q01DX001 (ip), vehicle: saline): 10 of 10; survivor count (dose: 32.0 mg/kg/injection, schedule: Q01DX001 (oral), vehicle: saline): 4 of 10 and 8 of 10; survivor count (dose: 32.0 mg/kg/injection, schedule: Q01DX001 (sc), vehicle: saline): 10 of 10; survivor count (dose: 32.0 mg/kg/injection, schedule: Q08DX002 (oral), vehicle: saline): 6 of 10

**Q.** What does the source list for Nc1nc2c(ncn2C2OC(CO)C(O)C2O)c(=O)[nH]1.Nc1nc2c(ncn2C2OC(CO)C(O)C2O)c(=O)[nH]1.[NH2-].[NH2-].[Pt+2] (centres undefined)?
**A.** T/C (dose: 50.0 mg/kg/injection, schedule: Q01DX009 (ip), vehicle: water): 137 % of control; T/C (dose: 100.0 mg/kg/injection, schedule: Q01DX009 (ip), vehicle: water): 136 % of control; T/C [3]: 139 % of control

**Q.** Cc1cccc(-n2c(N)cc(=O)[nH]c2=S)n1 was tested. Which survivor count (dose: 200.0 mg/kg/injection, schedule: Q04DX003 (ip), vehicle: saline with Tween-80) did it give?
**A.** 0 of 6

**Q.** And the survivor count (dose: 400.0 mg/kg/injection, schedule: Q04DX003 (ip), vehicle: saline with Tween-80)?
**A.** 0 of 6

**Q.** How did the survivor count (dose: 300.0 mg/kg/injection, schedule: Q01DX001 (ip), vehicle: saline) turn out when CN(C)N=C1CCCCC1 was run?
**A.** 1 of 6

**Q.** With CN(CCN1CCCC1)C(=O)C(O)(c1ccccc1)c1ccccc1 as the compound, how does the survivor count (dose: 400.0 mg/kg/injection, schedule: Q04DX003 (ip), vehicle: saline) read?
**A.** 0 of 3

**Q.** Which survivor count (dose: 400.0 mg/kg/injection, schedule: Q04DX003 (ip), vehicle: Klucel (hydroxypropylcellulose) (HPC)) does the source give for O=Cc1cc(Cl)c(O)c(Cl)c1 here?
**A.** 0 of 3

**Q.** With CC(=O)Nc1c(Cl)c(Cl)c2c(c1Cl)Cc1cc(Br)ccc1-2 as the compound, how does the survivor count (dose: 50.0 mg/kg/injection, schedule: Q01DX009 (ip), vehicle: Klucel (hydroxypropylcellulose) (HPC)) read?
**A.** 1 of 6

**Q.** And the survivor count (dose: 100.0 mg/kg/injection, schedule: Q01DX009 (ip), vehicle: Klucel (hydroxypropylcellulose) (HPC))?
**A.** 0 of 6

**Q.** Which results are given for COc1cc2c(c(OC)c1OC)-c1ccc(SC)c(=O)cc1[C@@H](NC1OC(CO)C(O)C(O)C1O)CC2 (some centres undefined)?
**A.** T/C (dose: 6.25 mg/kg/injection, schedule: Q01DX009 (ip), vehicle: saline): 125 % of control; T/C (dose: 12.5 mg/kg/injection, schedule: Q01DX009 (ip), vehicle: saline): 141 % of control; T/C (dose: 25.0 mg/kg/injection, schedule: Q01DX009 (ip), vehicle: saline): 141 % of control; T/C (dose: 50.0 mg/kg/injection, schedule: Q01DX009 (ip), vehicle: saline): 135 % of control; survivor count (dose: 100.0 mg/kg/injection, schedule: Q01DX009 (ip), vehicle: saline): 2 of 6

**Q.** With CCC(C)CC(C)N (centres undefined) as the compound, how does the survivor count (dose: 200.0 mg/kg/injection, schedule: Q01DX001 (ip), vehicle: saline) read?
**A.** 1 of 4

**Q.** And the survivor count (dose: 400.0 mg/kg/injection, schedule: Q01DX001 (ip), vehicle: saline)?
**A.** 0 of 4

**Q.** Which results are given for O=S(=O)(Cc1ccc(CS(=O)(=O)c2ccc(Cl)cc2)cc1)c1ccc(Cl)cc1?
**A.** survivor count (dose: 100.0 mg/kg/injection, schedule: Q01DX009 (ip), vehicle: saline with Tween-80): 6 of 6; survivor count (dose: 200.0 mg/kg/injection, schedule: Q01DX009 (ip), vehicle: saline with Tween-80): 6 of 6

**Q.** Which survivor count [3] does the source give for COc1cc2ccc3c[n+](C)ccc3c2cc1OC here?
**A.** 3 of 6 and 5 of 6

**Q.** What about the survivor count (dose: 400.0 mg/kg/injection, schedule: Q01DX009 (ip), vehicle: water) of the same compound?
**A.** 0 of 6 (2×)

**Q.** Nc1cc(C(=O)Nc2ccc(C3=NCCN3)cc2)cc(C(=O)Nc2ccc(C3=NCCN3)cc2)c1 was tested. Which T/C (dose: 15.6 mg/kg/injection, schedule: Q01DX010 (oral), vehicle: saline) did it give?
**A.** 133 % of control

**Q.** What about the T/C (dose: 62.5 mg/kg/injection, schedule: Q01DX010 (oral), vehicle: saline) of the same compound?
**A.** 130 % of control

**Q.** What about the T/C (dose: 125.0 mg/kg/injection, schedule: Q01DX010 (oral), vehicle: saline) of the same compound?
**A.** 127 % of control
